Results: PubChem BioAssay (NCATS)
Inconclusive results, whose numbers are uncertain, are shown with a selection of clear calls. For some of these results: Where the call is inconclusive, the potency comes from a doubtful curve fit. Activity calls are given as the source filed them. Unless noted, the call rests on the fitted dose curve; in most records, active means well fitted curve in the direction sought with a large enough effect; inconclusive means small, poorly fitted or top-dose-only effect, or another doubt; inactive means no such curve, though single readings can be large; an effect the other way counts as inactive or inconclusive.

Legend:
[1] = Quantitative High-Throughput drug screen in 47 multiple myeloma cell lines against the NCATS MIPE library collection: VP6_DJ cell viability assay (AID 1919867); further: nearly all actives have a fitted effect of over 40% in size
Summary of the method: (§1)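 Readout: median RLU from CellTiter-Glo after 5 min at room temperature. Preceding step was 48 h drug treatment of 500 cells/well at 37 °C, 5% CO2, with DMSO-only and media-only control wells.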

[2] = Quantitative High-Throughput drug screen in 47 multiple myeloma cell lines against the NCATS MIPE library collection: UTMC2_PLB cell viability assay (AID 1919868); details: CellTiter-Glo ATP luminescence, 48 h; series mostly up to 45.8 µM; further: nearly all actives have a fitted effect of over 55% in size
Summary of the method: as §1

[3] = Quantitative High-Throughput drug screen in 47 multiple myeloma cell lines against the NCATS MIPE library collection: PE2_PLB cell viability assay (AID 1919869); details: PE2_PLB myeloma cells viability, ATP luminescence, 48 h; viability (% of control): at 45.8 µM (top of the series); further: nearly all actives have a fitted effect of over 35% in size
Summary of the method: as §1

[4] = Quantitative High-Throughput drug screen in 47 multiple myeloma cell lines against the NCATS MIPE library collection: PCM6_Riken cell viability assay (AID 1919870); further: nearly all actives have a fitted effect of over 30% in size
Summary of the method: as §1

[5] = qHTS for identification of novel therapeutic agents for treatment of microphthalmiaassociated transcription factor (MiT) renal cell carcinoma (RCC) (AID 1963991; calls by dose curve); details: TFE3-RCC UOK109 viability, CellTiter-Glo, 48 h; active = Z-AUC below -0.8 in all three lines
Summary of the method: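 Three TFE3-fusion RCC cell lines (UOK109, UOK124, UOK145), 500 cells/well, were exposed to the 1912-compound MIPE 4.0 library for 48 hours at 37 C. Viability was read by CellTiter-Glo luminescence, normalised to DMSO (100%) and empty wells (0%), with 11-concentration curve fits.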

[6] = Quantitative High-Throughput drug screen in 47 multiple myeloma cell lines against the NCATS MIPE library collection: KMS11_JCRBsus cell viability assay (AID 1919873); further: nearly all actives have a fitted effect of over 50% in size
Summary of the method: as §1

[7] = Quantitative High-Throughput drug screen in 47 multiple myeloma cell lines against the NCATS MIPE library collection: RPMI8226_ATCC cell viability assay (AID 1919871); details: RPMI8226 myeloma viability, CellTiter-Glo ATP luminescence, 48 h; viability (% of control): at 45.8 µM (top of the series); further: nearly all actives have a fitted effect of over 30% in size
Summary of the method: as §1

[8] = Quantitative High-Throughput drug screen in 47 multiple myeloma cell lines against the NCATS MIPE library collection: KMS28BM_JCRB cell viability assay (AID 1919874); details: CellTiter-Glo ATP, 48 h; series mostly up to 45.8 µM; further: nearly all actives have a fitted effect of over 35% in size
Summary of the method: as §1

[9] = Quantitative High-Throughput drug screen in 47 multiple myeloma cell lines against the NCATS MIPE library collection: OPM2_DSMZ cell viability assay (AID 1919872); further: nearly all actives have a fitted effect of over 30% in size
Summary of the method: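 Inhibition of cell viability is measured here. Each line was plated at 500 cells per well, treated with MIPE 4.0 drugs, kept 48 hours at 37C, then assayed for ATP content by CellTiter-Glo luminescence.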

3D7 = assay: qHTS profiling for inhibitors of Plasmodium falciparum proliferation (AID 504749); further: nearly all actives have a fitted effect of over 60% in size; details: P. falciparum in erythrocytes, SYBR Green DNA, 72 h; series mostly up to 28.7 µM
Summary of the method: (§2)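 Fluorescence of SYBR Green-bound parasite DNA, read at 485/535 nm, served as the growth measure. Infected erythrocytes were cultured with compound 72 h; artemisinin (0.29 uM) and DMSO wells defined the normalization range.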

7G8 = assay: as above; details: P. falciparum in erythrocytes, SYBR Green DNA, 72 h; series mostly up to 28.7 µM
Summary of the method: as §2

Measured: Potency
Potency means the concentration at half of the fitted maximal effect.

COc1ccc2cc1Oc1ccc(cc1)C[C@H]1c3cc(c(OC)cc3CCN1C)Oc1c(OC)c(OC)cc3c1[C@H](C2)N(C)CC3
active: [1] 11.8 µM
inconclusive: [2] 11.8 µM [cytotoxic, full curve, poor fit] | [3] 16.6 µM [cytotoxic, partial curve] | [4] 6.62 µM [cytotoxic, full curve] | [5] 18.7 µM [falling, partial curve]

CN1c2ccccc2C(=O)N2CCc3c([nH]c4ccccc34)C21 (centres undefined)
inconclusive: [1] 37.2 µM [cytotoxic, partial curve, poor fit] | [2] 8.33 µM [cytotoxic, partial curve, poor fit] | [3] 33.2 µM [cytotoxic, single point] | [4] 37.2 µM [cytotoxic, single point] | [5] 37.2 µM [falling, single point]
active: [6] 2.96 µM

COc1cc2c(cc1OC)CC(=O)N(CCCN(C)C[C@H]1Cc3cc(OC)c(OC)cc31)CC2
inconclusive: [1] 0.0187 µM [rising, full curve, poor fit] | [2] 0.0026 µM [cytotoxic, full curve, poor fit] | [3] 0.118 µM [cytotoxic, full curve, poor fit] | [6] 46.9 µM [cytotoxic, single point] | [5] 20.9 µM [falling, partial curve]
inactive: [4]

C[C@@H](Cc1cc2c(c(C(N)=O)c1)N(CCCO)CC2)NCCOc1ccccc1OCC(F)(F)F
inactive: [3] | [7] | [6]
inconclusive: [1] 3.32 µM [cytotoxic, full curve, poor fit] | [2] 0.833 µM [cytotoxic, full curve, poor fit] | [8] 18.7 µM [cytotoxic, partial curve, poor fit] | [5] 26.4 µM

N[C@@H](C(=O)N[C@@H]1C(=O)N2C(C(=O)O)=C(Cl)CS[C@H]12)c1ccccc1
inconclusive: [1] 0.0296 µM [rising, full curve, poor fit] | [8] 11.8 µM [cytotoxic, single point]
inactive: [2] | [3] | [7] | [9]

COc1ccc2c(c1)c(C1=C(c3c[nH]c4ccccc34)C(=O)NC1=O)cn2CCCN(C)C
active: [1] 20.9 µM
inconclusive: [2] 10.5 µM [cytotoxic, partial curve, poor fit] | [3] 4.69 µM [cytotoxic, partial curve, poor fit] | [7] 29600 nM [cytotoxic, single point] | [9] 20.9 µM [cytotoxic, partial curve, poor fit] | [8] 29.6 µM [cytotoxic, single point] | [5] 14.8 µM [falling, partial curve]

CN(C)C(=O)c1ccc(S(=O)(=O)c2ccc(NC(=O)[C@@](C)(O)C(F)(F)F)c(Cl)c2)cc1
inconclusive: [1] 3.72 µM [cytotoxic, full curve] | [2] 16.6 µM [cytotoxic, partial curve, poor fit] | [3] 5.26 µM [cytotoxic, partial curve] | [4] 16.6 µM [cytotoxic, partial curve, poor fit] | [6] 20.9 µM [cytotoxic, partial curve] | [5] 33.2 µM

CC(c1cc2ccccc2s1)N(O)C(N)=O (centres undefined)
inconclusive: [2] 0.0012 µM [cytotoxic, full curve, poor fit]
inactive: [3] | [4] | [8] | 3D7
active: [1] 3.32 µM

CC[C@H](C)C(=O)O[C@H]1C[C@@H](C)C=C2C=C[C@H](C)[C@H](CC[C@@H]3C[C@@H](O)CC(=O)O3)[C@H]21
inconclusive: [1] 0.0187 µM [rising, full curve, poor fit] | [2] 33.2 µM [cytotoxic, single point] | [3] 16.6 µM [cytotoxic, partial curve] | [7] 18700 nM [cytotoxic, partial curve] | [9] 18.7 µM [cytotoxic, partial curve] | [5] 18.7 µM [falling, partial curve]

Nc1nccc(-c2ccc3noc(-c4ccc(Cl)cc4)c3c2)n1
inactive: [2] | [8]
inconclusive: [1] 16.6 µM [cytotoxic, partial curve, poor fit] | [3] 20.9 µM [cytotoxic, single point] | [4] 14.8 µM [cytotoxic, partial curve] | [5] 14.8 µM [falling, partial curve]

O=P(O)(O)C(O)(Cc1cccnc1)P(=O)(O)O
inactive: [1] | [2] | [3] | [9]
inconclusive: [7] 118 nM [rising, full curve, poor fit]

COc1ccc(-c2ccc3cc(C(=O)O)ccc3c2)cc1C12CC3CC(CC(C3)C1)C2
inconclusive: [1] 0.0012 µM [rising, full curve, poor fit] | [2] 0.001 µM [cytotoxic] | [3] 0.209 µM [cytotoxic, full curve, poor fit] | [4] 0.235 µM [cytotoxic, full curve, poor fit] | [5] 23.5 µM [falling, single point] | 7G8 = 17.8 µM [inhibitor, single point]
inactive: [6]

Cn1cc(C[C@@H](N)C(=O)O)c2ccccc21
inconclusive: [1] 0.144 µM [rising, full curve, poor fit] | [2] 0.0051 µM [cytotoxic, full curve, poor fit] | [4] 0.0144 µM [rising, full curve, poor fit]
inactive: [3] | [8]

CCOC(=O)N1c2ccc(C(F)(F)F)cc2[C@@H](N(Cc2cc(C(F)(F)F)cc(C(F)(F)F)c2)C(=O)OC)C[C@H]1CC
inactive: [4]
inconclusive: [1] 1.87 µM [cytotoxic, full curve, poor fit] | [2] 20.9 µM [cytotoxic, partial curve, poor fit] | [3] 18.7 µM [cytotoxic, partial curve] | [6] 33.2 µM [cytotoxic, single point] | [8] 0.132 µM [cytotoxic, full curve, poor fit]

Clc1cccc(-n2nnnc2NCc2ccccc2Oc2ccccn2)c1Cl
inconclusive: [1] 23.5 µM [cytotoxic, single point] | [3] 33.2 µM [cytotoxic, single point] | [7] 6.6 nM [rising, full curve, poor fit]
inactive: [2]

COc1cc(OC)c(NC(=O)Nc2cc(C)on2)cc1Cl
inconclusive: [1] 16.6 µM [cytotoxic, partial curve, poor fit] | [2] 0.418 µM [rising, full curve, poor fit] | [7] 1.9 nM [rising, full curve, poor fit] | [6] 0.001 µM
inactive: [3] | [8]

OC[C@H]1OC(O)C[C@@H](O)[C@H]1O (some centres undefined)
inactive: [2] | [3] | [7] | [9]
inconclusive: [1] 4.69 µM [rising, partial curve, poor fit] | [6] 33.2 µM [cytotoxic, single point]

Random excerpt: two entries already listed
Cn1cc(C[C@@H](N)C(=O)O)c2ccccc21
inconclusive: [1] 0.144 µM [rising, full curve, poor fit] | [2] 0.0051 µM [cytotoxic, full curve, poor fit] | [4] 0.0144 µM [rising, full curve, poor fit]
inactive: [3] | [8]

N[C@@H](C(=O)N[C@@H]1C(=O)N2C(C(=O)O)=C(Cl)CS[C@H]12)c1ccccc1
inconclusive: [1] 0.0296 µM [rising, full curve, poor fit] | [8] 11.8 µM [cytotoxic, single point]
inactive: [2] | [3] | [7] | [9]

The results go on.

Cc1c(C(=O)Nc2ccc(N3C[C@@H](C)O[C@@H](C)C3)nc2)cccc1-c1ccc(OC(F)(F)F)cc1
inactive: [3] | [4] | [6] | [8]
inconclusive: [1] 0.0053 µM [rising, full curve, poor fit] | [2] 6.62 µM [cytotoxic, full curve, poor fit] | [5] 1.05 µM [falling, full curve]

C#CCN(C)CC1=Cc2ccccc2Oc2ccccc21
inactive: [3] | [7]
inconclusive: [1] 0.0105 µM [rising, full curve, poor fit] | [2] 0.0021 µM [rising, full curve, poor fit] | [6] 0.0013 µM [cytotoxic, full curve, poor fit]

OC[C@H](Cc1ccccc1)Nc1nc(Oc2ccc3c(c2)CCC3)nc2c1ncn2Cc1ccc(-c2ccccc2)cc1
inactive: [1] | [4]
inconclusive: [2] 1.48 µM [rising, full curve, poor fit] | [3] 23.5 µM [cytotoxic, partial curve] | [6] 26.4 µM [cytotoxic, single point] | [5] 16.6 µM

CC(C)OC(=O)[C@H](C)N[P@](=O)(OC[C@H]1O[C@@H](n2ccc(=O)[nH]c2=O)[C@](C)(F)[C@H]1O)Oc1ccccc1
inconclusive: [1] 20.9 µM [cytotoxic, single point] | [2] 0.001 µM | [3] 18.7 µM [cytotoxic, single point]
inactive: [7] | [6] | [8]
